According to PubChem BioAssay AID2685 (National Center for Advancing Translational Sciences (NCATS), 2010):
Several values for one entry are separate records, joined by “and”; a condition that tells them apart may be missing. Equal entries are not always repeated. Some of the results follow. Shown are side measurements of this screen, not its main read-out; they come without a call. Compounds called inactive in the main read-out are mostly missing here. The note in brackets gives the kind of curve behind each potency; many fits are weak.

Test: qHTS Assay for Lipid Storage Modulators in Drosophila S3 Cells;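 on cell number change: cells counted by Cell Tracker Red CMTPX staining in the red channel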
Settings: BODIPY lipid droplet fluorescence, 18-24 h; for cell number change: measured here: cell count max response, cells fed with added oleic acid
Summary of the method: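 Laser-scanning cytometry quantifies lipid droplet accumulation (500–530 nm total intensity; droplet/cell object ratio) in oleic acid-fed (400 uM added) Drosophila S3 cells treated with a concentration series. 20 uM Triacsin C defined 100% inhibition.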

[1] = measured here: lipid fluorescence (Fed channel) AC50, cells fed with added oleic acid
[2] = measured here: cell number channel AC50, cells fed with added oleic acid

Structure (SMILES)	cell number change	AC50 [1]	AC50 [2]
Cc1[nH]c2ccccc2c1C(=O)C(=O)NCC1CCCO1 (stereo unspecified)	9.82%	0.116 µM [falling, full curve, poor fit]	
CC(C)(C)NC(=O)COC(=O)CCC(=O)c1cccs1	-39.1%	11.6 µM [falling, partial curve]	5.8 µM [falling, full curve, poor fit]
COc1ccc(S(=O)(=O)NCc2nc3nc(C)cc(C)n3n2)cc1OC	17.9%	18.4 µM [rising, partial curve]	
COc1cc(C)c(Br)cc1S(=O)(=O)NCCCN1CCOCC1	1.96%	0.517 µM [rising, full curve, poor fit]	
COc1cccc(-c2cc(C(=O)Nc3cccnc3)c3ccccc3n2)c1		11.6 µM [falling, single point]	
COc1cccc(-c2nn3c(-c4ccco4)nnc3s2)c1	-11.8%		
CCN(CC)C(=O)COc1cccc2ccccc12	2.31%	2.06 µM [rising, partial curve]	
CC1CN(C(=O)c2cc([N+](=O)[O-])cc([N+](=O)[O-])c2)CC(C)O1 (stereo unspecified)	-18.3%	0.164 µM [falling, full curve, poor fit]	
O=C(c1ccc(Cl)c(S(=O)(=O)N2CCCCC2)c1)N1CCCCCC1	3.24%	0.0517 µM [falling, full curve, poor fit]	
Cc1cc(N2C(=O)C(=O)/C(=C(/O)c3ccc(F)cc3)C2c2cccc(Br)c2)no1 (stereo unspecified)	-32.2%	0.82 µM [falling, full curve, poor fit]	29.1 µM [falling, single point]
Cc1ccc(NC(=O)c2ccc(C)c(NC3=NC4CS(=O)(=O)CC4S3)c2)cc1C (stereo unspecified)	7.78%		
Nc1cccc(NC(=O)CN2CCOCC2)c1	-1.17%		
O=C(Nc1ccc2c(c1)OCCO2)c1c(F)c(F)c(F)c(F)c1F	-23.5%	14.6 µM [falling, partial curve]	1.3 µM [falling, full curve, poor fit]
CCN(CC)CCOC(=O)c1ccc(NC(=O)CCCN2C(=O)/C(=C\c3cccs3)SC2=S)cc1	-14.7%		
O=C(c1ccccn1)N1CCCC(N2CCN(c3ccccc3)CC2)C1 (stereo unspecified)			0.82 µM [falling, full curve, poor fit]
C[C@@]12C(=O)Nc3cc(Cl)ccc3C(=O)N1[C@H]1c3ccccc3OC[C@@H]1[C@@H]2c1ccccc1	0.132%		
CCOC(=O)COc1cccc2c(=O)n(CC(=O)N3CCc4ccccc43)ccc12		5.8 µM [falling, single point]	
COc1ccc(CCC(=O)N2c3ccccc3CC2C)cc1 (stereo unspecified)			0.116 µM [falling, full curve, poor fit]
O=C(CN(c1ccccn1)S(=O)(=O)c1ccccc1)Nc1ccccc1		6.51 µM [falling, single point]	
CC(Sc1nnc(CNc2cccc3ccccc23)n1-c1ccccc1)C(=O)N/N=C/c1ccco1 (stereo unspecified)	18.5%		
Cn1c(SCC(=O)Nc2ccccc2F)nnc1C1CCCCC1	6.16%		

Structure (SMILES)	cell number change	AC50 [1]	AC50 [2]
O=C(CN(C(=O)CNS(=O)(=O)c1ccc(F)cc1)c1cccc(F)c1)NCC1CCCO1 (stereo unspecified)	3.75%	0.0058 µM [falling, full curve, poor fit]	
Cc1noc(NS(=O)(=O)c2ccc(N/C=C\C(=O)c3ccccc3)cc2)c1C	32.8%		20.6 µM [rising, single point]
COc1ccc(C2/C(=C(/O)c3ccccc3)C(=O)C(=O)N2CCCN2CCOCC2)cc1 (stereo unspecified)	4.38%		
CC(C)CC1(C(=O)NCCc2c[nH]c3ccccc23)C=CCN1C(=O)c1ccccc1 (stereo unspecified)	-14.1%	9.2 µM [rising, partial curve]	
O=C(Cn1nc2ccccc2n1)N/N=C/c1cc([N+](=O)[O-])ccc1O	12.1%		0.00517 µM [rising, full curve, poor fit]
COC(=O)c1c(-c2ccc3ccccc3c2)csc1NC(=O)Cc1ccc(OC)c(OC)c1	66.6%		32.6 µM [rising, single point]
O=C(O)CCN(CCC(=O)O)c1nnc(SCc2ccccc2)s1	13.4%		
NC(=O)c1ccsc1NC(=O)CSc1nnc(Nc2ccccc2)s1	-16.9%		
C/C(=N\NC(=O)c1ccc(C)cc1)c1c(C)[nH]n(-c2ccccc2)c1=O		13 µM [falling, partial curve]	
O=C1Nc2ccccc2N=C(c2ccccc2)c2ccccc21	21.4%	0.00461 µM [falling, full curve, poor fit]	0.00461 µM [falling, full curve, poor fit]
O=C(COC(=O)c1ccccc1SCC(=O)NC1CCS(=O)(=O)C1)NC1CCS(=O)(=O)C1 (stereo unspecified)	-10.8%	5.8 µM [falling, partial curve]	6.51 µM [falling, single point]
S=c1[nH]nc(-c2ccco2)n1/N=C/c1c(Cl)cccc1Cl	-16%	7.31 µM [falling, single point]	
CCC(=O)N1CCc2cc(S(=O)(=O)NCCC(=O)Nc3ccc(OC)cc3)ccc21	17.6%		
CN(Cc1ccccc1)c1oc(COc2ccccc2F)nc1C#N	23.8%	29.1 µM [rising, single point]	
O=[N+]([O-])c1nn(-c2cccc(Cl)c2)n(O)c1=NCc1cccnc1	95.8%	23.1 µM [rising, partial curve]	25.9 µM [rising, single point]
CCCCCCn1c(SCC(=O)c2ccccc2)nc2c1c(=O)[nH]c(=O)n2C	34.4%		6.51 µM [rising, partial curve, poor fit]
CN(C)S(=O)(=O)c1ccc(F)c(C(=O)Nc2ccccc2C(=O)NC2CC2)c1	-52.3%	29.1 µM [falling, single point]	
Cc1nc(SCC(=O)Nc2ccccc2C(F)(F)F)c(C#N)c(C)c1CC(=O)c1ccc(Br)cc1	4.15%	1.64 µM [rising, partial curve]	1.46 µM [rising, partial curve]
COc1cc(N2CCCC2)c(OC)cc1/C=C(/C#N)c1ccc(F)cc1	-13.3%	16.4 µM [falling, partial curve, poor fit]	
CC(C)c1nnc(SCC(=O)N2CCc3ccccc32)n1N	-29.5%		0.00461 µM [falling, full curve, poor fit]
CCOC(=O)C1CCCN(Cc2ccc(OCc3ccccc3)c(OC)c2)C1 (stereo unspecified)	-16.8%	6.51 µM [rising, single point]	

Structure (SMILES)	cell number change	AC50 [1]	AC50 [2]
CC(C)Oc1ccc(C(=O)Nc2ccc(N3CCCC3)cc2)cc1	49%		29.1 µM [rising, single point]
Cc1ccc(OCc2nc(-c3ccccn3)no2)cc1			6.51 µM [rising, single point]
COc1ccc2cc3[n+](cc2c1OC)CCc1cc2c(cc1-3)OCO2	11.1% and 3.89%	58 nM [rising, full curve] and 291 nM [rising, full curve]	0.231 µM [rising, partial curve]
CCOC(=O)C1C(=O)C=C(Nc2ccccc2F)CC1c1ccccc1 (stereo unspecified)	17.3%	32.6 µM [rising, partial curve]	
CNC(=O)NC(=O)COc1ccc2oc3c(c2c1)CCCC3		0.82 µM [falling, full curve]	
CCn1cc(C(=O)NCc2ccc3c(c2)OCO3)c(=O)c2ccc(C)nc21	11.4%	0.92 µM [rising, partial curve]	
Cc1ccc(C(=O)Nc2c(C)n(C)n(-c3ccccc3)c2=O)cc1S(=O)(=O)N1CCOCC1	-4.22%	18.4 µM [falling, single point]	
Oc1ccc(Cl)cc1CNc1ccccn1	10.5%	29.1 µM [rising, single point]	
O=C(Nc1ccc(Cl)c(S(=O)(=O)N2CCCCC2)c1)c1ccncc1	32.5%		8.2 µM [rising, partial curve, poor fit]
COc1cc(C(=O)Nc2ccc(-c3nc4cc(C)ccc4o3)c(O)c2)cc(OC)c1OC	6.46%	23.1 µM [falling, partial curve, poor fit]	
C=C(C)CSc1nc2ccccc2[nH]1	-4.49%	14.6 µM [rising, single point]	
CCOC(=O)c1c(NC(C)=O)sc2c(OC)c(Br)ccc12	-19.8%	3.66 µM [rising, partial curve]	
CCCCn1c(=O)[nH]c(=O)c2c(C(=O)OCC)cc(-c3cccs3)nc21			0.651 µM [rising, single point]
CCc1ccc(C(C)NC(=O)c2ncn[nH]2)cc1 (stereo unspecified)	-2.1%	3.26 µM [rising, partial curve]	
CC(C)C(OC(=O)c1cccs1)C(=O)NCc1ccc2c(c1)OCO2 (stereo unspecified)	-22.6%	29.1 µM [falling, single point]	
COc1ccccc1/C=N/N1CCN(c2ccc(Cl)cc2)CC1	16.1%		
S=c1[nH]nc(-c2ccncc2)n1/N=C/c1cccc(Cl)c1	10.5%	1.16 µM [rising, full curve]	
Cc1cc(C)n2cc(CSc3ncccc3C(=O)O)nc2n1	35.5%		4.61 µM [rising, full curve, poor fit]
COc1ccccc1NC(=O)C(Cc1ccc(Cl)cc1)c1nn[nH]n1 (stereo unspecified)	8.71%	25.9 µM [falling, partial curve]	
COc1cc(C(=O)NCC(=O)n2nc(C)cc2C)cc(OC)c1OC	-16.5%	29.1 µM [falling, single point]	

Three neighbouring entries from above, for reference:
Structure (SMILES)	cell number change	AC50 [1]	AC50 [2]
COc1cccc(-c2cc(C(=O)Nc3cccnc3)c3ccccc3n2)c1		11.6 µM [falling, single point]	
COc1cccc(-c2nn3c(-c4ccco4)nnc3s2)c1	-11.8%		
CCN(CC)C(=O)COc1cccc2ccccc12	2.31%	2.06 µM [rising, partial curve]	
